{"source": "paper PMC12040169", "about": "(PLOS Biology, 2025)", "note": "The other results are listed elsewhere or left out."}
{"system": "T1, CTL2-GFP (C. trachomatis L2/434/Bu, GFP-expressing)", "T1 construct": "L2/434/Bu, GFP-expressing", "parameters": "species or system HeLa; Intracellular C. trachomatis growth in HeLa cells, bulk GFP fluorescence relative to DMSO", "details": "bulk GFP, single well; 28.5 h, 10 µM; inhibitor", "units": {"% of control remaining": "%"}}
{"smiles": "O=c1c2ccccc2nc2n1CCN(Cc1c(F)cccc1F)CC2", "note": "[CBK284817]", "% of control remaining": 99.1624}
{"smiles": "COc1ccc2c(CCNC(=O)C(c3ccccc3)c3ccccc3)c[nH]c2c1", "note": "[CBK269294]", "% of control remaining": 140.727}
{"smiles": "OCCNCCNCc1ccc(-c2ccccc2)cc1", "note": "[CBK278269C]", "% of control remaining": 64.0332}
{"smiles": "O=C(Nc1cccc(Br)c1)C1CN(S(=O)(=O)c2ccccc2)CCN1S(=O)(=O)c1ccccc1", "note": "(stereo not shown) [CBK262671]", "% of control remaining": 99.2937}
{"smiles": "COCCN1C(=O)CO[C@H]2CN(C(=O)Nc3ccc(F)cc3)C[C@H]21", "note": "[CBK289705]", "% of control remaining": 92.1206}
{"smiles": "Cc1cc2ncc3c(n2n1)CC1CCC3N1Cc1ccccc1", "note": "(stereo not shown) [CBK282266]", "% of control remaining": 105.371}
{"smiles": "N=C1NS(=O)(=O)NC1c1ccc(Cl)cc1", "note": "(stereo not shown) [CBK263858]", "% of control remaining": 100}
{"smiles": "Cc1ccc(C(=O)COC(=O)C(Cc2ccccc2)N2C(=O)c3cc(Cl)c(Cl)cc3C2=O)cc1", "note": "(stereo not shown) [CBK264176]", "% of control remaining": 125.681}
{"smiles": "COCCNc1nc(-c2ccsc2)ccc1C(=O)N1CCN(C)CC1", "note": "[CBK105948]", "% of control remaining": 109.651}
{"smiles": "c1ccc(-c2cccc(-c3cc(Nc4ccc(N5CCOCC5)cc4)ncn3)c2)cc1", "note": "[CBK090930]", "% of control remaining": 165.912}
{"smiles": "CCN1CCC2(CCC1=O)CN(Cc1cncn1CC(C)C)CCN2C", "note": "(stereo not shown) [CBK306947]", "% of control remaining": 108.564}
{"smiles": "Cc1ccc(N2CCCN(C(=O)CCc3ccsc3)CC2)nn1", "note": "[CBK304573]", "% of control remaining": 135.101}
{"smiles": "CC(C)(C)OC(=O)Nc1ccc(Oc2ncc(C(F)(F)F)cc2Cl)cc1", "note": "[CBK161658]", "% of control remaining": 101.928}
{"smiles": "CCCc1cc(=O)[nH]c(Nc2ccc(OCC)cc2)n1", "note": "[CBK288140]", "% of control remaining": 80.1538}
{"smiles": "O=S(=O)(c1ccc(C(F)(F)F)cc1Cl)N1CCN(Cc2c[nH]nc2-c2cccs2)CC1", "note": "[CBK062864]", "% of control remaining": 95.221}
{"smiles": "COc1cccc(CCOc2cncc(Cl)n2)c1", "note": "[CBK113556]", "% of control remaining": 103.938}
{"smiles": "CC1CN(Cc2nc3c(c(=O)[nH]c(=O)n3C)n2CCc2ccccc2)CC(C)O1", "note": "(stereo not shown) [CBK269876]", "% of control remaining": 92.6778}
{"smiles": "CN(CCOc1ccccc1)c1cc(C2CC(N)C2)nc(N)n1", "note": "(stereo not shown) [CBK306849]", "% of control remaining": 109.886}
{"smiles": "Cc1n[nH]c(C)c1CNC(=O)C1(c2ccccc2F)CC1", "note": "[CBK283156]", "% of control remaining": 143.162}
{"smiles": "Cc1cc(O)nc(SCC(=O)Nc2cc([N+](=O)[O-])ccc2C)n1", "note": "[CBK267488]", "% of control remaining": 98.5297}
{"smiles": "O=C1CCC(=O)N1CCOc1nccnc1OC1CCN(CCCn2c(=O)[nH]c3ccccc32)CC1", "note": "[CBK084350]", "% of control remaining": 125.301}
{"smiles": "CCCNC(=O)Cn1nc(C)n2c(cc3sc(C)cc32)c1=O", "note": "[CBK284068]", "% of control remaining": 137.323}
